Experimental data taken from paper PMC8613289.

Chains of the proteins cited; added tags and fusions are not shown. Residues count along the entry.
UniProt P29317, residues 24-976: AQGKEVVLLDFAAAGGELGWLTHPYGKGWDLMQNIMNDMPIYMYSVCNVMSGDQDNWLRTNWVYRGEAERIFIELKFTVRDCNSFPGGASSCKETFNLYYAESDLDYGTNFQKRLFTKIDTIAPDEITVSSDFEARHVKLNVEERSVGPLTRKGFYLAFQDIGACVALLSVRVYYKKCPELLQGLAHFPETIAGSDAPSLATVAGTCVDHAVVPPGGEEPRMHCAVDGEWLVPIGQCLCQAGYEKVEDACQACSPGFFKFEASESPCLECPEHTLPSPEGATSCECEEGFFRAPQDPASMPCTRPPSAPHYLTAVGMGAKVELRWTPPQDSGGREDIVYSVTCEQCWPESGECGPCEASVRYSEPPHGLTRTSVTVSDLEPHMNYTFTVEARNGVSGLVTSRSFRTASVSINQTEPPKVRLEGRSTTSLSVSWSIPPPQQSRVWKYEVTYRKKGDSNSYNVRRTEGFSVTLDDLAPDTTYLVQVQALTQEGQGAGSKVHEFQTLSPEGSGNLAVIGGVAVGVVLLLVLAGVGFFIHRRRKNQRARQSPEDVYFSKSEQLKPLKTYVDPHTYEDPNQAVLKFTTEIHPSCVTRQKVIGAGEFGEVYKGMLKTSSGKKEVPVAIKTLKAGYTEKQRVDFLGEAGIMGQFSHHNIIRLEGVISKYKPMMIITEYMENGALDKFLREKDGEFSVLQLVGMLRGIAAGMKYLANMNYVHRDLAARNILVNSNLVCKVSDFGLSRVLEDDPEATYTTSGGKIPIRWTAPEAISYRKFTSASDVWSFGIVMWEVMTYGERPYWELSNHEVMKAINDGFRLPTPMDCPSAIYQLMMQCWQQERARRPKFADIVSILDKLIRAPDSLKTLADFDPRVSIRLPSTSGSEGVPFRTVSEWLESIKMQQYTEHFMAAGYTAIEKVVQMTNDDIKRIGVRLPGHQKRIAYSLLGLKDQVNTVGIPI
UniProt Q96HA1: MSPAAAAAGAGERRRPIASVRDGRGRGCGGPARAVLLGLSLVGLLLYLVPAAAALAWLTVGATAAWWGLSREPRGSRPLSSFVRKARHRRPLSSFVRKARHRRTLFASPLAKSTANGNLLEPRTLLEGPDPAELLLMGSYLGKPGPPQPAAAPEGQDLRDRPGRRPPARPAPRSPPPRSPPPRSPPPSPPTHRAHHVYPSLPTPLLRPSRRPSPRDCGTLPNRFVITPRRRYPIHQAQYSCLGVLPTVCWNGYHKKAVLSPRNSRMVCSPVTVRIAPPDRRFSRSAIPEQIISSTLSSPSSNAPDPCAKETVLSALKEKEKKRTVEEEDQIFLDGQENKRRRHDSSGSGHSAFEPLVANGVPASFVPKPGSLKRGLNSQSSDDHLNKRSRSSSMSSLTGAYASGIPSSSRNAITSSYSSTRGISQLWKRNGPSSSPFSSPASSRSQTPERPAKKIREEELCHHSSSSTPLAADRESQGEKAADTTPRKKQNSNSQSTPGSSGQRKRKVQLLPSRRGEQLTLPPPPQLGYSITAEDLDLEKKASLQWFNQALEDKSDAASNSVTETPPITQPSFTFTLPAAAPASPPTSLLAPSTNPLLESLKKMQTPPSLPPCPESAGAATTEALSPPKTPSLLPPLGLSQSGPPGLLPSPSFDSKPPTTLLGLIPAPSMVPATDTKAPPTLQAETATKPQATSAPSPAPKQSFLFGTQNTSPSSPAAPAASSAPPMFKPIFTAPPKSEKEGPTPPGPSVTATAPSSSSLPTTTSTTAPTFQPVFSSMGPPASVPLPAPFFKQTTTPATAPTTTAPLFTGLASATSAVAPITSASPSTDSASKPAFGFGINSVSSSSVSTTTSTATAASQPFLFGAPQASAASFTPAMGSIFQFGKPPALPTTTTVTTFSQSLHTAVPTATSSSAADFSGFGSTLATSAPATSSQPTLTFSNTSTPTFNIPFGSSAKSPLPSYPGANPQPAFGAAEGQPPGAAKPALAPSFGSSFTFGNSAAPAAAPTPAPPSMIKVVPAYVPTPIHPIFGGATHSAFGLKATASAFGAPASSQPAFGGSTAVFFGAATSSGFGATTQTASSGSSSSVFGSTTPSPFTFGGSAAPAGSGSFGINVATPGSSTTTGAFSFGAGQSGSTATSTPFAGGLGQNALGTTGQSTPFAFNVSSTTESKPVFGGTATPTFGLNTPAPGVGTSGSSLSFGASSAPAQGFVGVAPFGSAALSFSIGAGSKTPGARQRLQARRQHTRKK
UniProt P49792: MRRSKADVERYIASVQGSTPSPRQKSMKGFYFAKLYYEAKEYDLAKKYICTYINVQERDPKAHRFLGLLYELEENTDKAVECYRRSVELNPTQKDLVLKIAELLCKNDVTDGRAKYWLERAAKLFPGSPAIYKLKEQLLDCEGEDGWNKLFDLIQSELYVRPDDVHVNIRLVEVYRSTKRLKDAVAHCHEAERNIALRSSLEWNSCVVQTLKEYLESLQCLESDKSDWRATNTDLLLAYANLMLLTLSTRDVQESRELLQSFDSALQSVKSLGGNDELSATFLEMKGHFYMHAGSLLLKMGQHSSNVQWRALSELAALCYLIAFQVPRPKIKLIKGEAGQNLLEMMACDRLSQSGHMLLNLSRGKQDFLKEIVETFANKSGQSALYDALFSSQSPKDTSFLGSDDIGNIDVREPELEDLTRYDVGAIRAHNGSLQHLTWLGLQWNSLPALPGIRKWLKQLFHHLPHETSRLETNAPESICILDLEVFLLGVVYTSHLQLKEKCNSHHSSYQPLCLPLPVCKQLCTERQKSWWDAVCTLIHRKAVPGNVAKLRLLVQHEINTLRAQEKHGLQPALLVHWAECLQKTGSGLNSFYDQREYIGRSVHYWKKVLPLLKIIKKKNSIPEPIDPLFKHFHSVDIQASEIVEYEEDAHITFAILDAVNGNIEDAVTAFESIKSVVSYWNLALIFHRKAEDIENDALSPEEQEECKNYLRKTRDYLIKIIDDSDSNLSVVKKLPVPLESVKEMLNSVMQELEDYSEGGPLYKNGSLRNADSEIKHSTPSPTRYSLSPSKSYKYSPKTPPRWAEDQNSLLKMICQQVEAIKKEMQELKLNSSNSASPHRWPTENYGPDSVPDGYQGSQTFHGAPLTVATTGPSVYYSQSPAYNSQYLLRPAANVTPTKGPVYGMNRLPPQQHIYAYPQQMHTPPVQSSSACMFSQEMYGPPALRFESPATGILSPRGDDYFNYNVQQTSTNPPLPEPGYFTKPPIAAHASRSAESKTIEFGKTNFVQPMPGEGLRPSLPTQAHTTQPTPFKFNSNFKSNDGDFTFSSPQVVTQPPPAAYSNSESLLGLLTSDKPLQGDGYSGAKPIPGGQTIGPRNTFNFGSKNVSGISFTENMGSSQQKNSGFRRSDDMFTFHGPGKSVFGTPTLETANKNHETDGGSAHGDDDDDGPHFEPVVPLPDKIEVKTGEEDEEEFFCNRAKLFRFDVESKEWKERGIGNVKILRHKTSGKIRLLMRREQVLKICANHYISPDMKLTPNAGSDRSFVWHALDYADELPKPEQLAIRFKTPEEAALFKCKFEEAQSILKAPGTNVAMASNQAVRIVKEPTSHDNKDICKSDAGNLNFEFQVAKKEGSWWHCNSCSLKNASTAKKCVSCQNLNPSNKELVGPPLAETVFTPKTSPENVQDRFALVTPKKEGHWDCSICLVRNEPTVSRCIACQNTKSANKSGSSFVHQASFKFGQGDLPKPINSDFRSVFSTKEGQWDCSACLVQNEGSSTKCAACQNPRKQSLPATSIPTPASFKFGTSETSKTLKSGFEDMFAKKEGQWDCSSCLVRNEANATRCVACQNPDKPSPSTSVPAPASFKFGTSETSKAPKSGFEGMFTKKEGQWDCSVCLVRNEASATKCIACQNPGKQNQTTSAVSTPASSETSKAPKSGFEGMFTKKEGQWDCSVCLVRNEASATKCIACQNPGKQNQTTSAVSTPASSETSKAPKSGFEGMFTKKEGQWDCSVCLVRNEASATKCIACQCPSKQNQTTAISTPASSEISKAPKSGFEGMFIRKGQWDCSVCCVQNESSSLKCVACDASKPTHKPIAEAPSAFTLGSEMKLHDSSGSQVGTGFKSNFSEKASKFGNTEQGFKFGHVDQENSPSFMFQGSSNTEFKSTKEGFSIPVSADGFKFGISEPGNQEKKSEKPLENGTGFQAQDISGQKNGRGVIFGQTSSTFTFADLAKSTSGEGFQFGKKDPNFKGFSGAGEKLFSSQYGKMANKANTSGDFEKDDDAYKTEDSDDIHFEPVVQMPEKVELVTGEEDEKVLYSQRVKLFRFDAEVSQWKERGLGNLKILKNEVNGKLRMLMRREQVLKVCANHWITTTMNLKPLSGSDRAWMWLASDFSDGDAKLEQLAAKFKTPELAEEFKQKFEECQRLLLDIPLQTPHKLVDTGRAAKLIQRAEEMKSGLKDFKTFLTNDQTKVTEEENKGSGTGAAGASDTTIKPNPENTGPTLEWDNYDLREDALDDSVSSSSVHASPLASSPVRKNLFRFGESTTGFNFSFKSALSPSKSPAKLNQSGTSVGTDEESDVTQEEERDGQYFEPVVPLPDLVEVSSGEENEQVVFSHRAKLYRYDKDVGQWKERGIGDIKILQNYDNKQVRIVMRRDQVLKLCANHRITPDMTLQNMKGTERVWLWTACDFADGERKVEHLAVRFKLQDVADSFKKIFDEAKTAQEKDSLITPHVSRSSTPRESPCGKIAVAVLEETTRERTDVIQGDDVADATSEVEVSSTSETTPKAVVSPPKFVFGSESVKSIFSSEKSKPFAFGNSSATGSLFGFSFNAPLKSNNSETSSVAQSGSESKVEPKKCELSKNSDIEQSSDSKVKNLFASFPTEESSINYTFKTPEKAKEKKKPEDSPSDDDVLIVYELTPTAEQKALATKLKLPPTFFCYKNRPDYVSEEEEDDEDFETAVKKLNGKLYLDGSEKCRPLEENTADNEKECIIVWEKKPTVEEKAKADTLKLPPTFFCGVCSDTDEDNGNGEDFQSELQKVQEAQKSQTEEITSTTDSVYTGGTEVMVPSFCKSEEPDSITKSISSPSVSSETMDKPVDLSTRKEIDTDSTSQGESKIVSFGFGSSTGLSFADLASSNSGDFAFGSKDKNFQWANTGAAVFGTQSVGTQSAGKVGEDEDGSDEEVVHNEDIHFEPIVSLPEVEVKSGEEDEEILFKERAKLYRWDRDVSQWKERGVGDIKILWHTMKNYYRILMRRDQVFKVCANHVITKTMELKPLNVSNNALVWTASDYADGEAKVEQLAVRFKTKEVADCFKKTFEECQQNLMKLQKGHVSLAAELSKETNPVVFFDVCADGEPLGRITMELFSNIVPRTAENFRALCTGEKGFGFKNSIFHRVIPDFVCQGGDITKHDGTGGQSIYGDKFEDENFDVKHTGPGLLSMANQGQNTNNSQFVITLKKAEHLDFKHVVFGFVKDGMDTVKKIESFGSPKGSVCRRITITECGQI

B1: Nup50 (protein, UniProt Q9UKX7 1-468)
chain: MAKRNAEKELTDRNWDQEDEAEEVGTFSMASEEVLKNRAIKKAKRRNVGFESDTGGAFKGFKGLVVPSGGGRFSGFGSGAGGKPLEGLSNGNNITSAPPFASAKAAADPKVAFGSLAANGPTTLVDKVSNPKTNGDSQQPSSSGLASSKACVGNAYHKQLAALNCSVRDWIVKHVNTNPLCDLTPIFKDYEKYLANIEQQHGNSGRNSESESNKVAAETQSPSLFGSTKLQQESTFLFHGNKTEDTPDKKMEVASEKKTDPSSLGATSASFNFGKKVDSSVLGSLSSVPLTGFSFSPGNSSLFGKDTTQSKPVSSPFPTKPLEGQAEGDSGECKGGDEEENDEPPKVVVTEVKEEDAFYSKKCKLFYKKDNEFKEKGIGTLHLKPTANQKTQLLVRADTNLGNILLNVLIPPNMPCTRTGKNNVLIVCVPNPPIDEKNATMPVTMLIRVKTSEDADELHKILLEKKDA
B2: Nup133 (protein, UniProt Q8WUM0 1-1156)
chain: MFPAAPSPRTPGTGSRRGPLAGLGPGSTPRTASRKGLPLGSAVSSPVLFSPVGRRSSLSSRGTPTRMFPHHSITESVNYDVKTFGSSLPVKVMEALTLAEVDDQLTINIDEGGWACLVCKEKLIIWKIALSPITKLSVCKELQLPPSDFHWSADLVALSYSSPSGEAHSTQAVAVMVATREGSIRYWPSLAGEDTYTEAFVDSGGDKTYSFLTAVQGGSFILSSSGSQLIRLIPESSGKIHQHILPQGQGMLSGIGRKVSSLFGILSPSSDLTLSSVLWDRERSSFYSLTSSNISKWELDDSSEKHAYSWDINRALKENITDAIWGSESNYEAIKEGVNIRYLDLKQNCDGLVILAAAWHSADNPCLIYYSLITIEDNGCQMSDAVTVEVTQYNPPFQSEDLILCQLTVPNFSNQTAYLYNESAVYVCSTGTGKFSLPQEKIVFNAQGDSVLGAGACGGVPIIFSRNSGLVSITSRENVSILAEDLEGSLASSVAGPNSESMIFETTTKNETIAQEDKIKLLKAAFLQYCRKDLGHAQMVVDELFSSHSDLDSDSELDRAVTQISVDLMDDYPASDPRWAESVPEEAPGFSNTSLIILHQLEDKMKAHSFLMDFIHQVGLFGRLGSFPVRGTPMATRLLLCEHAEKLSAAIVLKNHHSRLSDLVNTAILIALNKREYEIPSNLTPADVFFREVSQVDTICECLLEHEEQVLRDAPMDSIEWAEVVINVNNILKDMLQAASHYRQNRNSLYRREESLEKEPEYVPWTATSGPGGIRTVIIRQHEIVLKVAYPQADSNLRNIVTEQLVALIDCFLDGYVSQLKSVDKSSNRERYDNLEMEYLQKRSDLLSPLLSLGQYLWAASLAEKYCDFDILVQMCEQTDNQSRLQRYMTQFADQNFSDFLFRWYLEKGKRGKLLSQPISQHGQLANFLQAHEHLSWLHEINSQELEKAHATLLGLANMETRYFAKKKTLLGLSKLAALASDFSEDMLQEKIEEMAEQERFLLHQETLPEQLLAEKQLNLSAMPVLTAPQLIGLYICEENRRANEYDFKKALDLLEYIDEEEDININDLKLEILCKALQRDNWSSSDGKDDPIEVSKDSIFVKILQKLLKDGIQLSEYLPEVKDLLQADQLGSLKSNPYFEFVLKANYEYYVQGQI

What follows are molecules tested against EphA2-V5-TurboID (wild-type EphA2) (human) (UniProt P29317) (assay: proximity labelling; EphA2-TurboID constructs in cells; biotin with or without HGF for 1 h; streptavidin-agarose beads; biotinylated proteins analysed by western blotting).

binding	Molecule
binds	POM121 (from UniProt Q96HA1 1-1249)
binds	RanBP2 (from UniProt P49792 1-3224)
binds	B1
binds	B2

Results are given in words; binding and its absence hold for the method and conditions named. In cells and extracts the contact can be indirect. A yes stands for co-enrichment or nearness to the bait. Other partners may have been found.
